Assay results: doi:10.1101/2025.03.06.641037

T1: F2V5-ADNP (Activity-Dependent Neuroprotective Protein, endogenously tagged) (human (endogenous in H9-derived hNSCs)) (UniProt Q9H2P0)
T1 sequence: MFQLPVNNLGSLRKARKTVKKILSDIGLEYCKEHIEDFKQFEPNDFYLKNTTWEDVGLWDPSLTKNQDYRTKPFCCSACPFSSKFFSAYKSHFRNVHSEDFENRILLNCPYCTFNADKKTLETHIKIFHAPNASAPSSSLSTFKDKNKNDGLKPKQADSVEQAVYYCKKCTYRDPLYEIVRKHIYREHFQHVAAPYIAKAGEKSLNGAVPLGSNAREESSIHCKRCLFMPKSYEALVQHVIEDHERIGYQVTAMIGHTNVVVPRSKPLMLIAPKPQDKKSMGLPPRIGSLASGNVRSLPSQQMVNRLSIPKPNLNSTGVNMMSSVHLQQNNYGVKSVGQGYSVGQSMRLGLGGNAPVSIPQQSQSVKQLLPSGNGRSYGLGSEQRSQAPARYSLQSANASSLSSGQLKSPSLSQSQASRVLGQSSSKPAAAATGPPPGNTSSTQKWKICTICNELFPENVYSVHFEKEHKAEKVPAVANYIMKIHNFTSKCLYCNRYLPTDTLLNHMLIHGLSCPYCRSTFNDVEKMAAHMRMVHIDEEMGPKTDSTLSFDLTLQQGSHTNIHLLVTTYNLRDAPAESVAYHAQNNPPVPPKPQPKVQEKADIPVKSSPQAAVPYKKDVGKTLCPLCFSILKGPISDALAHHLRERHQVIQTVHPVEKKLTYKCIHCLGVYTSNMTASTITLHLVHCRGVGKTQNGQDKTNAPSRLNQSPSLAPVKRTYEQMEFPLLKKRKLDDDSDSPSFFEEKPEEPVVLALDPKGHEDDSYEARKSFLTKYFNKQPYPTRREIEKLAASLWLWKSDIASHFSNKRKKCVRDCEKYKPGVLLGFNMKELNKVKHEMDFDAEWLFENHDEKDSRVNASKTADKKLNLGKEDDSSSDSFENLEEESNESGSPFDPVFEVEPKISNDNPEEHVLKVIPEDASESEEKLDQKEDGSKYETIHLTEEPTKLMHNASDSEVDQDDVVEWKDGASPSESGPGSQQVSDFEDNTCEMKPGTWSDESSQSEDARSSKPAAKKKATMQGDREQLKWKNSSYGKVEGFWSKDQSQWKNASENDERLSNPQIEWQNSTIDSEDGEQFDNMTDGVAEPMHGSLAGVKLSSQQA

B1: ZMYM2 (protein, UniProt Q9UBW7 1-1377)
chain: MDTSSVGGLELTDQTPVLLGSTAMATSLTNVGNSFSGPANPLVSRSNKFQNSSVEDDDDVVFIEPVQPPPPSVPVVADQRTITFTSSKNEELQGNDSKITPSSKELASQKGSVSETIVIDDEEDMETNQGQEKNSSNFIERRPPETKNRTNDVDFSTSSFSRSKVNAGMGNSGITTEPDSEIQIANVTTLETGVSSVNDGQLENTDGRDMNLMITHVTSLQNTNLGDVSNGLQSSNFGVNIQTYTPSLTSQTKTGVGPFNPGRMNVAGDVFQNGESATHHNPDSWISQSASFPRNQKQPGVDSLSPVASLPKQIFQPSVQQQPTKPVKVTCANCKKPLQKGQTAYQRKGSAHLFCSTTCLSSFSHKPAPKKLCVMCKKDITTMKGTIVAQVDSSESFQEFCSTSCLSLYEDKQNPTKGALNKSRCTICGKLTEIRHEVSFKNMTHKLCSDHCFNRYRMANGLIMNCCEQCGEYLPSKGAGNNVLVIDGQQKRFCCQSCVSEYKQVGSHPSFLKEVRDHMQDSFLMQPEKYGKLTTCTGCRTQCRFFDMTQCIGPNGYMEPYCSTACMNSHKTKYAKSQSLGIICHFCKRNSLPQYQATMPDGKLYNFCNSSCVAKFQALSMQSSPNGQFVAPSDIQLKCNYCKNSFCSKPEILEWENKVHQFCSKTCSDDYKKLHCIVTYCEYCQEEKTLHETVNFSGVKRPFCSEGCKLLYKQDFARRLGLRCVTCNYCSQLCKKGATKELDGVVRDFCSEDCCKKFQDWYYKAARCDCCKSQGTLKERVQWRGEMKHFCDQHCLLRFYCQQNEPNMTTQKGPENLHYDQGCQTSRTKMTGSAPPPSPTPNKEMKNKAVLCKPLTMTKATYCKPHMQTKSCQTDDTWRTEYVPVPIPVPVYIPVPMHMYSQNIPVPTTVPVPVPVPVFLPAPLDSSEKIPAAIEELKSKVSSDALDTELLTMTDMMSEDEGKTETTNINSVIIETDIIGSDLLKNSDPETQSSMPDVPYEPDLDIEIDFPRAAEELDMENEFLLPPVFGEEYEEQPRPRSKKKGAKRKAVSGYQSHDDSSDNSECSFPFKYTYGVNAWKHWVKTRQLDEDLLVLDELKSSKSVKLKEDLLSHTTAELNYGLAHFVNEIRRPNGENYAPDSIYYLCLGIQEYLCGSNRKDNIFIDPGYQTFEQELNKILRSWQPSILPDGSIFSRVEEDYLWRIKQLGSHSPVALLNTLFYFNTKYFGLKTVEQHLRLSFGTVFRHWKKNPLTMENKACLRYQVSSLCGTDNEDKITTGKRKHEDDEPVFEQIENTANPSRCPVKMFECYLSKSPQNLNQRMDVFYLQPECSSSTDSPVWYTSTSLDRNTLENMLVRVLLVKDIYDKDNYELDEDTD
B2: ZMYM3 (protein, UniProt Q14202 1-1370)
chain: MDPSDFPSPFDPLTLPEKPLAGDLPVDMEFGEDLLESQTAPTRGWAPPGPSPSSGALDLLDTPAGLEKDPGVLDGATELLGLGGLLYKAPSPPEVDHGPEGTLAWDAGDQTLEPGPGGQTPEVVPPDPGAGANSCSPEGLLEPLAPDSPITLQSPHIEEEETTSIATARRGSPGQEEELPQGQPQSPNAPPSPSVGETLGDGINSSQTKPGGSSPPAHPSLPGDGLTAKASEKPPERKRSERVRRAEPPKPEVVDSTESIPVSDEDSDAMVDDPNDEDFVPFRPRRSPRMSLRSSVSQRAGRSAVGTKMTCAHCRTPLQKGQTAYQRKGLPQLFCSSSCLTTFSKKPSGKKTCTFCKKEIWNTKDSVVAQTGSGGSFHEFCTSVCLSLYEAQQQRPIPQSGDPADATRCSICQKTGEVLHEVSNGSVVHRLCSDSCFSKFRANKGLKTNCCDQCGAYIYTKTGSPGPELLFHEGQQKRFCNTTCLGAYKKKNTRVYPCVWCKTLCKNFEMLSHVDRNGKTSLFCSLCCTTSYKVKQAGLTGPPRPCSFCRRSLSDPCYYNKVDRTVYQFCSPSCWTKFQRTSPEGGIHLSCHYCHSLFSGKPEVLDWQDQVFQFCCRDCCEDFKRLRGVVSQCEHCRQEKLLHEKLRFSGVEKSFCSEGCVLLYKQDFTKKLGLCCITCTYCSQTCQRGVTEQLDGSTWDFCSEDCKSKYLLWYCKAARCHACKRQGKLLETIHWRGQIRHFCNQQCLLRFYSQQNQPNLDTQSGPESLLNSQSPESKPQTPSQTKVENSNTVRTPEENGNLGKIPVKTRSAPTAPTPPPPPPPATPRKNKAAMCKPLMQNRGVSCKVEMKSKGSQTEEWKPQVIVLPIPVPIFVPVPMHLYCQKVPVPFSMPIPVPVPMFLPTTLESTDKIVETIEELKVKIPSNPLEADILAMAEMIAEAEELDKASSDLCDLVSNQSAEGLLEDCDLFGPARDDVLAMAVKMANVLDEPGQDLEADFPKNPLDINPSVDFLFDCGLVGPEDVSTEQDLPRTMRKGQKRLVLSESCSRDSMSSQPSCTGLNYSYGVNAWKCWVQSKYANGETSKGDELRFGPKPMRIKEDILACSAAELNYGLAQFVREITRPNGERYEPDSIYYLCLGIQQYLLENNRMVNIFTDLYYLTFVQELNKSLSTWQPTLLPNNTVFSRVEEEHLWECKQLGVYSPFVLLNTLMFFNTKFFGLQTAEEHMQLSFTNVVRQSRKCTTPRGTTKVVSIRYYAPVRQRKGRDTGPGKRKREDEAPILEQRENRMNPLRCPVKFYEFYLSKCPESLRTRNDVFYLQPERSCIAESPLWYSVIPMDRSMLESMLNRILAVREIYEELGRPGEEDLD
B3: POGZ (protein, UniProt Q7Z3K3 1-1410)
chain: MADTDLFMECEEEELEPWQKISDVIEDSVVEDYNSVDKTTTVSVSQQPVSAPVPIAAHASVAGHLSTSTTVSSSGAQNSDSTKKTLVTLIANNNAGNPLVQQGGQPLILTQNPAPGLGTMVTQPVLRPVQVMQNANHVTSSPVASQPIFITTQGFPVRNVRPVQNAMNQVGIVLNVQQGQTVRPITLVPAPGTQFVKPTVGVPQVFSQMTPVRPGSTMPVRPTTNTFTTVIPATLTIRSTVPQSQSQQTKSTPSTSTTPTATQPTSLGQLAVQSPGQSNQTTNPKLAPSFPSPPAVSIASFVTVKRPGVTGENSNEVAKLVNTLNTIPSLGQSPGPVVVSNNSSAHGSQRTSGPESSMKVTSSIPVFDLQDGGRKICPRCNAQFRVTEALRGHMCYCCPEMVEYQKKGKSLDSEPSVPSAAKPPSPEKTAPVASTPSSTPIPALSPPTKVPEPNENVGDAVQTKLIMLVDDFYYGRDGGKVAQLTNFPKVATSFRCPHCTKRLKNNIRFMNHMKHHVELDQQNGEVDGHTICQHCYRQFSTPFQLQCHLENVHSPYESTTKCKICEWAFESEPLFLQHMKDTHKPGEMPYVCQVCQYRSSLYSEVDVHFRMIHEDTRHLLCPYCLKVFKNGNAFQQHYMRHQKRNVYHCNKCRLQFLFAKDKIEHKLQHHKTFRKPKQLEGLKPGTKVTIRASRGQPRTVPVSSNDTPPSALQEAAPLTSSMDPLPVFLYPPVQRSIQKRAVRKMSVMGRQTCLECSFEIPDFPNHFPTYVHCSLCRYSTCCSRAYANHMINNHVPRKSPKYLALFKNSVSGIKLACTSCTFVTSVGDAMAKHLVFNPSHRSSSILPRGLTWIAHSRHGQTRDRVHDRNVKNMYPPPSFPTNKAATVKSAGATPAEPEELLTPLAPALPSPASTATPPPTPTHPQALALPPLATEGAECLNVDDQDEGSPVTQEPELASGGGGSGGVGKKEQLSVKKLRVVLFALCCNTEQAAEHFRNPQRRIRRWLRRFQASQGENLEGKYLSFEAEEKLAEWVLTQREQQLPVNEETLFQKATKIGRSLEGGFKISYEWAVRFMLRHHLTPHARRAVAHTLPKDVAENAGLFIDFVQRQIHNQDLPLSMIVAIDEISLFLDTEVLSSDDRKENALQTVGTGEPWCDVVLAILADGTVLPTLVFYRGQMDQPANMPDSILLEAKESGYSDDEIMELWSTRVWQKHTACQRSKGMLVMDCHRTHLSEEVLAMLSASSTLPAVVPAGCSSKIQPLDVCIKRTVKNFLHKKWKEQAREMADTACDSDVLLQLVLVWLGEVLGVIGDCPELVQRSFLVASVLPGPDGNINSPTRNADMQEELIASLEEQLKLSGEHSESSTPRPRSSPEETIEPESLHQLFEGESETESFYGFEEADLDLMEI

These binders were tested against T1, F2V5-ADNP (Activity-Dependent Neuroprotective Protein, endogenously tagged) (human (endogenous in H9-derived hNSCs)) (assay: affinity purification with mass spectrometry).

binding, binds:
B1, B2, B3

No constants are given. Whether binding was seen depends on the method and setting. In cells and extracts the contact can be indirect. A yes stands for co-enrichment or nearness to the bait. Other partners may have been found. Tags and fused reporters may be left off the sequences shown.
